We go through two substances from paper PMC8229726.

Sequences of proteins named here, by UniProt entry; tags and fusion partners are left off.
UniProt P08100: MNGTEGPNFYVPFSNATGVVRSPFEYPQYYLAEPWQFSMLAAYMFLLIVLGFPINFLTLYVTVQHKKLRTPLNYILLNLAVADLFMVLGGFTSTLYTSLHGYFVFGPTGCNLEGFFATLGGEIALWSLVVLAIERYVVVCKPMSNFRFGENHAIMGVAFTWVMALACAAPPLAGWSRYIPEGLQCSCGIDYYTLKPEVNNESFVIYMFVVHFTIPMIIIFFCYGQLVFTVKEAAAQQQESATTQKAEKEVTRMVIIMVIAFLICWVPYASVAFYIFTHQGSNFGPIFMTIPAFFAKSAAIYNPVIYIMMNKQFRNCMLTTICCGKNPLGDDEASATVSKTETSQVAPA
UniProt P15409: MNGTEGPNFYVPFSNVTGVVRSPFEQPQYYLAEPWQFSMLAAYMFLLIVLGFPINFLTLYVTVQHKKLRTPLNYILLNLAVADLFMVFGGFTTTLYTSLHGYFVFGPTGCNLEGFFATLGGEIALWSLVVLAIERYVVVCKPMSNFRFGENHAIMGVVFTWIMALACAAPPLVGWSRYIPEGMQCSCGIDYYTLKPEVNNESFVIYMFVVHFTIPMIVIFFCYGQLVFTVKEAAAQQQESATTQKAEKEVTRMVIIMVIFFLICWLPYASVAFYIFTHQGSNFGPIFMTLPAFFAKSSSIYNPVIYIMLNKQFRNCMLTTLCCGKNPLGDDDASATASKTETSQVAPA
UniProt Q9WTI7: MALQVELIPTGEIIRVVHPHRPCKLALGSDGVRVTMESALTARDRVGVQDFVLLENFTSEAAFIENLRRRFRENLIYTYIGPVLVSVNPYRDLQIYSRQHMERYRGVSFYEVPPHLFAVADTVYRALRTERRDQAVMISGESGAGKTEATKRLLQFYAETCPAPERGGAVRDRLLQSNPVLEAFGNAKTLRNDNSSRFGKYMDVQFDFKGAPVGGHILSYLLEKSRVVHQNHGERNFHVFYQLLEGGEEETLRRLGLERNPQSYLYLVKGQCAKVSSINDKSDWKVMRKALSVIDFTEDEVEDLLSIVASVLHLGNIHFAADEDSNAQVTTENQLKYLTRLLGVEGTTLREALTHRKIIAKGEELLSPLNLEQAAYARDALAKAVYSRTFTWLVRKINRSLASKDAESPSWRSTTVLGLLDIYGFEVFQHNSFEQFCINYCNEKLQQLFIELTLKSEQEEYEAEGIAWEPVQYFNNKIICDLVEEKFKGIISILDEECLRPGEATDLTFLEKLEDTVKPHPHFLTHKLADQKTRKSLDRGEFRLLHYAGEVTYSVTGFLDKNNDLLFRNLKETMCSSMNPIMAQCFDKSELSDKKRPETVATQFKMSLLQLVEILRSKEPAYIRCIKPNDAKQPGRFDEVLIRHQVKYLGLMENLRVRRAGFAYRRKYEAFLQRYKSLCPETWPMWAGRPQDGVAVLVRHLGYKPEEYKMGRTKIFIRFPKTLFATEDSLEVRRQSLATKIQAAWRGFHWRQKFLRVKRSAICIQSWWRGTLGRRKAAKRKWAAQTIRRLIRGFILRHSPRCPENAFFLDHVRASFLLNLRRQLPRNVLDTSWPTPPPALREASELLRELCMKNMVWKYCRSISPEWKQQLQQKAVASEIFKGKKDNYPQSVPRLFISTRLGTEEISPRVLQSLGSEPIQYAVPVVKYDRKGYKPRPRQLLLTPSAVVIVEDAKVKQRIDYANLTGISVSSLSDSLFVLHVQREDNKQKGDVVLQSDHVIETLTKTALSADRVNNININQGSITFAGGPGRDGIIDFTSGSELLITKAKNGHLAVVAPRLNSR

These are yes or no findings as the source states them, for the method shown. For part of these data: Binding seen in cells or lysates may run through a third protein. Some entries that bind do so weakly or less than the wild type.

For assay [1], the target named is mammalian-expressed and purified Flag rhodopsin (UniProt P08100). The experiment in a line: ELISA; 100 ng purified rhodopsin coated on Maxisorp wells at 4 °C overnight; blocked with 5% BSA; 200 ng MYO1C protein, 4 h, 37 °C; detected with MYO1C antibody, absorbance at 450 nm; both purified.
The target of assay [2] is rhodopsin overexpressed in HEK293 cells (pcDNA3 rod opsin construct) (UniProt P08100). As to the kind of experiment: far-Western, overlay or dot blot; lysate of HEK293 cells overexpressing rhodopsin (or empty pcDNA3 vector) separated by SDS-PAGE and transferred to a membrane; overlaid with 5 µg purified recombinant full-length MYO1C, 4 °C, 4 h; detected with MYO1C antibody; only the binder purified.

The target of assay [3] is rhodopsin, endogenous in mouse retina (mouse (endogenous in retina)) (UniProt P15409). The experiment in a line: co-IP; endogenous proteins in mouse retinal extracts (6 retinas pooled from 3 WT or Myo1c-KO mice) in RIPA buffer; anti-rhodopsin or mouse/rabbit IgG overnight at 4 °C, protein G agarose; immunoblot for MYO1C.

In the case of “baculovirus-produced purified recombinant full-length mouse MYO1C protein (from UniProt Q9WTI7 1-1063)”, the binding entry in assay [1] and in assay [2] was “binds” each time.

Regarding “MYO1C (unconventional myosin 1C), endogenous in mouse retina (from UniProt Q9WTI7 1-1063)”, in assay [3], the binding result is listed as “binds”.
